Reference: PubChem BioAssay AID2685 (National Center for Advancing Translational Sciences (NCATS), 2010)
The other results are listed elsewhere or left out. These are further read-outs of the screen, such as a control signal, another cell line or another target. No call is given for them. Compounds called inactive in the main read-out are mostly missing here. Words in brackets tell the shape of the fitted curve; partial curves, single points and poor fits give uncertain potencies.

Assay: qHTS Assay for Lipid Storage Modulators in Drosophila S3 Cells;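 on cell number change: cells counted by Cell Tracker Red CMTPX staining in the red channel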
Conditions: BODIPY lipid droplet fluorescence, 18-24 h; for cell number change: measured here: cell count max response, cells fed with added oleic acid
Method in brief: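 Drosophila S3 cells got compounds at several concentrations plus oleic acid (400 uM solution). Laser-scanning cytometry with 488 nm excitation read lipid droplets at 500-530 nm and cells at 575-640 nm. Percent activity was relative to 20 uM Triacsin C.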

[1] = measured here: lipid fluorescence (Fed channel) AC50, cells fed with added oleic acid
[2] = measured here: cell number channel AC50, cells fed with added oleic acid

Row | Structure (SMILES) | cell number change [%] | AC50 [1] | AC50 [2]
1 | CCCNC(=O)c1onc(CS(=O)(=O)c2cccc(OC)c2)c1C(=O)NCCC | -25.9 | 0.116 µM [falling, full curve, poor fit] | –
2 | CCn1c(Cc2ccccc2)nnc1SCC(=O)NC(C)(C)C | 6.74 | 3.26 µM [rising, partial curve] | 0.13 µM [rising, full curve, poor fit]
3 | COc1ccccc1N1CCN(C(=O)c2ccc(C(C)(C)C)cc2)CC1 | -12.7 | – | –
4 | CCN(CC)c1nc(C(N)=O)cc(-c2ccccc2)n1 | -54.5 | – | –
5 | O=C(CN1C(=O)COc2ccc(S(=O)(=O)N3CCCC3)cc21)Nc1cccc(F)c1 | – | 6.51 µM [rising, partial curve] | –
6 | Nc1nc(SCC(=O)OCc2ccccc2)[nH]c(=O)c1NC(=O)c1ccco1 | -104 | 18.4 µM [falling, partial curve] | 25.9 µM [falling, partial curve, poor fit]
7 | Clc1ccc(CN2CCCCCCC2)cc1Cl | -59.4 | 18.4 µM [falling, single point] | 13 µM [falling, partial curve, poor fit]
8 | Cc1ccc(C(=O)N2CCCCCC2)cc1S(=O)(=O)N1CCOCC1 | 1.98 | 29.1 µM [rising, single point] | 0.146 µM [rising, full curve, poor fit]
9 | CC(NC(=O)c1ccc(F)cc1)c1ccc2c(c1)CCCC2 (stereo unspecified) | 113 | – | 18.4 µM [rising, single point]
10 | C[C@@]12CCC=C[C@H]1[C@H](c1ccc(C(F)(F)F)cc1)N(Cc1ccccc1)C2=O | -45.1 | 29.1 µM [falling, single point] | 29.1 µM [falling, single point]
11 | Cc1cccc(C(=O)NC(=S)N2CCc3ccccc3C2)c1 | 14 | – | 0.461 µM [falling, single point]
12 | Cc1cc(C)c2oc(C(=O)Nc3ccc(S(=O)(=O)N4CCC(C)CC4)cc3)cc(=O)c2c1 | 24.7 | 29.1 µM [rising, single point] | –
13 | CCOC(CCn1c(SCC(=O)Nc2cc(C)on2)nc2ccccc2c1=O)OCC | – | 3.66 µM [rising, single point] | –
14 | Cc1ccccc1Nc1nc(N)nc(CSc2ccccc2)n1 | -33.3 | 18.4 µM [rising, partial curve] | 32.6 µM [falling, single point]
15 | Cn1ccc(C(=O)Oc2ccc(C(=O)Nc3ccc(F)cc3F)cc2)n1 | 21.4 | – | –
16 | CCn1cc2nc(SCC(=O)Nc3ccc(F)cc3F)n(Cc3ccccc3)c(=O)c2n1 | -18.8 | 0.58 µM [rising, single point] | –
17 | CCOc1ncccc1C(=O)Nc1ccccc1C(=O)NCc1ccc2c(c1)OCO2 | -34.3 | – | 3.26 µM [falling, partial curve]
18 | COc1ccc(NC(=O)Cn2cccc2)cc1Cl | -41.7 | – | –
19 | CCOC(=O)c1cccc(C2=CC(=O)CC(C)(C)C2)c1 | -9.7 | – | –
20 | CCn1c(=O)cc(SCC(=O)NCCC2=CCCCC2)c2ccccc21 | 2.98 | 4.11 µM [rising, full curve, poor fit] | –

Among those listed so far, 7 contain a halogen.
Row | Structure (SMILES) | cell number change [%] | AC50 [1] | AC50 [2]
5 | O=C(CN1C(=O)COc2ccc(S(=O)(=O)N3CCCC3)cc21)Nc1cccc(F)c1 | – | 6.51 µM [rising, partial curve] | –
7 | Clc1ccc(CN2CCCCCCC2)cc1Cl | -59.4 | 18.4 µM [falling, single point] | 13 µM [falling, partial curve, poor fit]
9 | CC(NC(=O)c1ccc(F)cc1)c1ccc2c(c1)CCCC2 (stereo unspecified) | 113 | – | 18.4 µM [rising, single point]
10 | C[C@@]12CCC=C[C@H]1[C@H](c1ccc(C(F)(F)F)cc1)N(Cc1ccccc1)C2=O | -45.1 | 29.1 µM [falling, single point] | 29.1 µM [falling, single point]
15 | Cn1ccc(C(=O)Oc2ccc(C(=O)Nc3ccc(F)cc3F)cc2)n1 | 21.4 | – | –
16 | CCn1cc2nc(SCC(=O)Nc3ccc(F)cc3F)n(Cc3ccccc3)c(=O)c2n1 | -18.8 | 0.58 µM [rising, single point] | –
18 | COc1ccc(NC(=O)Cn2cccc2)cc1Cl | -41.7 | – | –

Later entries.

Row | Structure (SMILES) | cell number change [%] | AC50 [1] | AC50 [2]
21 | CCCOc1ccc(N/C=C/C(=O)c2cc(OC)c(OC)c(OC)c2)cc1 | 4.01 | 2.31 µM [rising, partial curve] | 4.11 µM [rising, single point]
22 | Cc1sc2ncnc(N3CCN(Cc4ccccc4)CC3)c2c1-c1ccccc1 | -0.855 | – | –
23 | CC(=O)c1sc(NC(=O)c2c(F)cccc2F)nc1C | 40.8 | 20.6 µM [rising, single point] | 14.6 µM [rising, single point]
24 | Cc1ccc(-c2csc(N/N=C/c3ccco3)n2)c(C)c1 | -8.59 | 1.16 µM [falling, single point] | 0.731 µM [falling, single point]
25 | Cc1ccc2nc(N3CCN(C(=O)c4ccco4)CC3)sc2c1 | -2.02 | – | –
26 | CCN(Cc1ccccc1)S(=O)(=O)c1csc(C(N)=O)c1 | 8.94 | – | –
27 | O=C(C1=C(O)C(=O)N(CC2CCCO2)C1c1cccnc1)c1ccco1 (stereo unspecified) | -2.78 | – | 0.13 µM [falling, full curve, poor fit]
28 | CCc1ccc(C2=NNC(=Nc3cccc(S(=O)(=O)N(C)C)c3)SC2)cc1 | 34.2 | 8.2 µM [rising, partial curve] | 4.11 µM [rising, partial curve, poor fit]
29 | Cc1cccc(N=CC=C2OC(C)(C)C(C)(C)O2)c1 | -2.1 | 32.6 µM [rising, single point] | –
30 | O=C(O)c1ccc([N+](=O)[O-])c(CS(=O)(=O)c2ccc(Cl)cc2)c1 | 7.56 | 0.146 µM [falling, full curve, poor fit] | –
31 | Cc1sc(NC(=O)c2ccccc2F)c(CN2CCCCC2C)c1C (stereo unspecified) | -3.54 | – | –
32 | Cn1cccc1Cc1nnc(SCC(=O)N2CCN(c3ccccc3)CC2)n1-c1ccc(F)cc1 | -28.3 | 29.1 µM [falling, single point] | –
33 | CC1Sc2ccc(S(=O)(=O)CCC(=O)N3CCCC3)cc2NC1=O (stereo unspecified) | 11.3 | 3.66 µM [rising, full curve] | –
34 | Nc1nc2ccc(N3CCOCC3)cc2s1 | 17.8 | – | –
35 | CSc1nc2ccc3nc(NC(=O)c4cccs4)sc3c2s1 | 169 | – | –
36 | Cc1ccc(C)c(S(=O)(=O)N2CCN(CC(=O)N3CCc4ccccc4C3)CC2)c1 | 46.6 | 13 µM [rising, partial curve] | 0.411 µM [rising, full curve]
37 | O=C(Nc1cccc(NS(=O)(=O)c2ccc(S(=O)(=O)NC3CC3)cc2)c1)c1ccccn1 | -13.5 | 0.461 µM [rising, full curve] | –
38 | Cc1cc(NC(=O)CC2CCCC2)n(-c2nc3ccccc3[nH]2)n1 | -13.4 | 1.84 µM [rising, partial curve] | –
39 | COc1cc2c(cc1OC)C(C)N(C(=O)Nc1ccccc1)CC2 (stereo unspecified) | -22.8 | 29.1 µM [falling, single point] | –
